{
  "source": "patent US9624482B2",
  "about": "“Thermophilic cellobiohydrolase” (Sandia Corporation, priority 2009, dated 2017)",
  "molecules": {"B1": {"name": "Caldicellulosiruptor saccharolyticus (Csac) CBM3-GH5 cellobiohydrolase, construct E (CsacF7-6), amino acids 374-1039 of Csac CBH, SEQ ID NO:4 … (protein)", "chain": "MGVTTSSPTPTPTPTVTVTPTPTPTPTPTVTATPTPTPTPVSTPATGGQIKVLYANKETNSTTNTIRPWLKVVNSGSSSIDLSRVTIRYWYTVDGERAQSAVSDWAQIGASNVTFKFVKLSSSVSGADYYLEIGFKSGAGQLQPGKDTGEIQIRFNKSDWSNYNQGNDWSWLQSMTSYGENEKVTAYIDGVLVWGQEPSGATPAPTMTVAPTATPTPTLSPTVTPTPAPTQTAIPTPTLTPNPTPTSSIPDDTNDDWLYVSGNKIVDKDGRPVWLTGINWFGYNTGTNVFDGVWSCNLKDTLAEIANRGFNLLRVPISAELILNWSQGIYPKPNINYYVNPELEGKNSLEVFDIVVQTCKEVGLKIMLDIHSIKTDAMGHIYPVWYDEKFTPEDFYKACEWITNRYKNDDTIIAFDLKNEPHGKPWQDTTFAKWDNSTDINNWKYAAETCAKRILNINPNLLIVIEGLEAYPKDDVTWTSKSSSDYVSTWWGGNLRGVRKYPINLGKYQNKVVYSPHDYGPSVYQQPWFYPGFTKELLQDCWRPNWAYLMEENIAPLLIGEWGGHLDGADNEKWMKYLRDYIIENHIHHTFWCFNANSGDTGGLVGYDFTTWDEKKYSFLKPALWQDSQGRFVGLDHKRPLGTNGKNINITTYYNNNEPEPVPASK", "notes": "C-terminal V5 and His6 tags (pDEST42); E. coli BL21(DE3) Star; purified"}},
  "test": "Effect of IL concentration on CBH activity, CMC substrate, DNS",
  "assay_type": "biochemical",
  "conditions": "EMIM acetate",
  "experimental": "GH5 and CBM3-GH5 (constructs C and E, respectively) are tested to determine the effect of IL concentration on the CBH activity of GH5. Carboxymethyl cellulose (CMC) is used as the substrate for the enzymatic reaction, and the amount of released products containing reducing ends is measured by DNS. The CBH activity remains fairly highly from 0% to more than 20% EMIM acetate. From 25% EMIM acetate the CBH activity starts to decrease and the CBH activity diminished at about 60% EMIM acetate.",
  "note": "Some of these results come from one statement about several compounds together.",
  "data": [
    {"molecule": "B1", "values": [
      {"measurement": "IL concentration up to which there is no loss of activity / activity remains fairly high", "result": "more than 20%"}
    ]}
  ]
}
